{
  "source": "PubChem BioAssay AID2685",
  "about": "(National Center for Advancing Translational Sciences (NCATS), 2010)",
  "assay": "qHTS Assay for Lipid Storage Modulators in Drosophila S3 Cells;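 on cell number change: cells counted by Cell Tracker Red CMTPX staining in the red channel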",
  "conditions": "BODIPY lipid droplet fluorescence, 18-24 h; for cell number change: measured here: cell count max response, cells fed with added oleic acid",
  "method_in_brief": "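Laser-scanning cytometry quantifies lipid droplet accumulation (500–530 nm total intensity; droplet/cell object ratio) in oleic acid-fed (400 uM added) Drosophila S3 cells treated with a concentration series. 20 uM Triacsin C defined 100% inhibition.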",
  "key": {"[1]": {"conditions": "measured here: lipid fluorescence (Fed channel) AC50, cells fed with added oleic acid"}, "[2]": {"conditions": "measured here: cell number channel AC50, cells fed with added oleic acid"}},
  "note": "The list shows a part of the results. Shown are side measurements of this screen, not its main read-out; they come without a call. Compounds called inactive in the main read-out are mostly missing here. The note in brackets gives the kind of curve behind each potency; many fits are weak.",
  "data": [
    {"compound": "Cc1ccnc(NS(=O)(=O)c2cnc(Cl)c(Br)c2)c1", "values": [
      {"measurement": "cell number change", "value": -12.7, "unit": "%"},
      {"measurement": "AC50", "setting": "[1]", "value": "3.66 µM [falling, single point]"}
    ]},
    {"compound": "CCN(CC)c1ccc(CN(C(=O)c2cccs2)C2CCS(=O)(=O)C2)cc1", "note": "(stereo not given)", "values": [
      {"measurement": "AC50", "setting": "[1]", "value": "18.4 µM [falling, single point]"}
    ]},
    {"compound": "CC(=O)Nc1ccc(NC(=O)c2nc(-c3ccccc3)oc2C)cc1", "values": [
      {"measurement": "cell number change", "value": 4.4, "unit": "%"}
    ]},
    {"compound": "CCn1cc(S(=O)(=O)Nc2cccnc2)cn1", "values": [
      {"measurement": "cell number change", "value": -16.8, "unit": "%"},
      {"measurement": "AC50", "setting": "[1]", "value": "11.6 µM [falling, single point]"}
    ]},
    {"compound": "CC(=O)Oc1ccc(C(=O)Nc2cc(C)on2)cc1", "values": [
      {"measurement": "cell number change", "value": -22.2, "unit": "%"}
    ]},
    {"compound": "Cc1cc(S(=O)(=O)N2CCCC2C(=O)N2CCOCC2)c(C)cc1Cl", "note": "(stereo not given)", "values": [
      {"measurement": "cell number change", "value": -1.88, "unit": "%"}
    ]},
    {"compound": "O=C(/C=C/c1ccco1)NC1=NCCS1", "values": [
      {"measurement": "cell number change", "value": -0.445, "unit": "%"},
      {"measurement": "AC50", "setting": "[2]", "value": "2.59 µM [rising, single point]"}
    ]},
    {"compound": "CCc1c(-c2ccccc2)nc2nc(C)c(C)nn12", "values": [
      {"measurement": "cell number change", "value": 49.6, "unit": "%"},
      {"measurement": "AC50", "setting": "[2]", "value": "14.6 µM [rising, single point]"},
      {"measurement": "AC50", "setting": "[1]", "value": "0.82 µM [falling, full curve]"}
    ]},
    {"compound": "COc1cccc(Oc2coc3cc(OC(=O)N4CCOCC4)ccc3c2=O)c1", "values": [
      {"measurement": "cell number change", "value": -26.1, "unit": "%"}
    ]},
    {"compound": "CSc1ccccc1NC(=O)CN(C)C(=O)c1ccc(-n2cccn2)cc1", "values": [
      {"measurement": "cell number change", "value": 21.9, "unit": "%"},
      {"measurement": "AC50", "setting": "[1]", "value": "29.1 µM [rising, single point]"}
    ]},
    {"compound": "COc1cccc(N(C(=O)Cc2cccs2)C(C(=O)NC2CCCC2)c2ccncc2)c1", "note": "(stereo not given)", "values": [
      {"measurement": "cell number change", "value": -8.97, "unit": "%"},
      {"measurement": "AC50", "setting": "[2]", "value": "5.8 µM [rising, single point]"}
    ]},
    {"compound": "Cc1ccc2c(c1)C(=O)CC(c1ccc3c(c1)OCCO3)O2", "note": "(stereo not given)", "values": [
      {"measurement": "cell number change", "value": 20.7, "unit": "%"},
      {"measurement": "AC50", "setting": "[1]", "value": "29.1 µM [falling, single point]"}
    ]},
    {"compound": "CCOC(=O)c1oc2cccc(O)c2c1CN1CCOCC1", "values": [
      {"measurement": "cell number change", "value": -32, "unit": "%"},
      {"measurement": "AC50", "setting": "[2]", "value": "5.8 µM [falling, full curve, poor fit]"}
    ]},
    {"compound": "O=C(C1CC1)N1CCc2cc(Br)cc(S(=O)(=O)NCc3ccc4c(c3)OCO4)c21", "values": [
      {"measurement": "cell number change", "value": -15, "unit": "%"},
      {"measurement": "AC50", "setting": "[1]", "value": "20.6 µM [rising, single point]"}
    ]},
    {"compound": "Cc1cccc(N2CCN(C(=O)/C=C/c3cccs3)CC2C)c1", "note": "(stereo not given)", "values": [
      {"measurement": "cell number change", "value": -21.5, "unit": "%"},
      {"measurement": "AC50", "setting": "[2]", "value": "0.00461 µM [falling, full curve, poor fit]"}
    ]},
    {"compound": "COc1ccccc1N1C(=O)[C@@H]2[C@H](C1=O)[C@H](C(=O)c1ccc(OC(C)=O)cc1)N1N=CC=C[C@@H]21", "values": [
      {"measurement": "cell number change", "value": 20.6, "unit": "%"},
      {"measurement": "AC50", "setting": "[1]", "value": "7.31 µM [rising, partial curve, poor fit]"}
    ]},
    {"compound": "CCOC(=O)N1CCc2c(sc(NC(=O)c3ccc(Cl)s3)c2C(N)=O)C1", "values": [
      {"measurement": "cell number change", "value": -27.6, "unit": "%"},
      {"measurement": "AC50", "setting": "[1]", "value": "20.6 µM [falling, single point]"}
    ]},
    {"compound": "O=S(=O)(Nc1ccc(O)c2ccccc12)c1cccs1", "values": [
      {"measurement": "cell number change", "value": 18.4, "unit": "%"},
      {"measurement": "AC50", "setting": "[1]", "value": "1.58 µM [rising, partial curve]"}
    ]},
    {"compound": "O=C(O)/C=C/c1ccc(S(=O)(=O)Nc2ccc(C(=O)NCC(=O)O)cc2)cc1", "values": [
      {"measurement": "cell number change", "value": -27.2, "unit": "%"},
      {"measurement": "AC50", "setting": "[2]", "value": "5.17 µM [rising, single point]"}
    ]},
    {"compound": "CCCCCCC(=O)Cc1cc(OC)c(OC)cc1C=C(C(=O)OCC)C(=O)OCC", "values": [
      {"measurement": "cell number change", "value": 52.1, "unit": "%"},
      {"measurement": "AC50", "setting": "[2]", "value": "14.6 µM [rising, partial curve, poor fit]"},
      {"measurement": "AC50", "setting": "[1]", "value": "0.0291 µM [falling, full curve, poor fit]"}
    ]},
    {"compound": "Cc1nc(Cl)c(C(=O)NC(=O)Nc2cccc(C(F)(F)F)c2)c(C)c1[N+](=O)[O-]", "values": [
      {"measurement": "cell number change", "value": -36.4, "unit": "%"},
      {"measurement": "AC50", "setting": "[2]", "value": "5.17 µM [falling, full curve, poor fit]"}
    ]},
    {"compound": "COC(=O)c1ccc(NC(=O)CSc2nnc(-c3ccncc3)n2C)cc1", "values": [
      {"measurement": "cell number change", "value": 7.93, "unit": "%"},
      {"measurement": "AC50", "setting": "[2]", "value": "3.66 µM [rising, partial curve, poor fit]"}
    ]},
    {"compound": "CC(C)(C)C(C(Oc1ccc(Cl)cc1)n1cncn1)n1nnnc1C(c1cccc(Cl)c1)N1CCCCC1", "note": "(stereo not given)", "values": [
      {"measurement": "cell number change", "value": -11.7, "unit": "%"},
      {"measurement": "AC50", "setting": "[1]", "value": "32.6 µM [falling, single point]"}
    ]},
    {"compound": "CCCCCCCCc1nc(SC(C)C(=O)O)n[nH]1", "note": "(stereo not given)", "values": [
      {"measurement": "AC50", "setting": "[1]", "value": "29.1 µM [rising, single point]"}
    ]},
    {"compound": "O=C(/C=C/c1ccc(F)cc1)NC(=S)NNC(=O)c1cnccn1", "values": [
      {"measurement": "cell number change", "value": 37.1, "unit": "%"},
      {"measurement": "AC50", "setting": "[2]", "value": "2.06 µM [rising, partial curve]"},
      {"measurement": "AC50", "setting": "[1]", "value": "2.59 µM [rising, single point]"}
    ]},
    {"compound": "Cc1ccc(OCC(=O)Nc2ccc(N3CCN(C(=O)c4ccco4)CC3)cc2)cc1C", "values": [
      {"measurement": "cell number change", "value": 7.04, "unit": "%"},
      {"measurement": "AC50", "setting": "[1]", "value": "0.116 µM [rising, full curve, poor fit]"}
    ]},
    {"compound": "NC(=O)c1ccccc1N/C=C1\\CCCCC1=O", "values": [
      {"measurement": "cell number change", "value": 2.53, "unit": "%"},
      {"measurement": "AC50", "setting": "[1]", "value": "0.411 µM [falling, partial curve, poor fit]"}
    ]},
    {"compound": "O=C(O)CC(CP(=O)(c1ccccc1)c1ccccc1)C(=O)O", "note": "(stereo not given)", "values": [
      {"measurement": "cell number change", "value": 16.8, "unit": "%"},
      {"measurement": "AC50", "setting": "[1]", "value": "0.0058 µM [rising, full curve, poor fit]"}
    ]},
    {"compound": "COCCNC(=O)c1cn(C)c2ccc(S(=O)(=O)N(C)C3CCCCC3)cc2c1=O", "values": [
      {"measurement": "cell number change", "value": 15.7, "unit": "%"},
      {"measurement": "AC50", "setting": "[1]", "value": "9.2 µM [rising, partial curve, poor fit]"}
    ]},
    {"compound": "Cc1cccc(Nc2nc(NCc3ccco3)c3ccccc3n2)c1", "values": [
      {"measurement": "cell number change", "value": -84.7, "unit": "%"},
      {"measurement": "AC50", "setting": "[2]", "value": "8.2 µM [falling, partial curve]"},
      {"measurement": "AC50", "setting": "[1]", "value": "3.26 µM [falling, partial curve]"}
    ]},
    {"compound": "Cc1csc(NC(=O)c2cccc(S(=O)(=O)N3CCCCC3)c2)n1", "values": [
      {"measurement": "AC50", "setting": "[2]", "value": "0.411 µM [rising, single point]"}
    ]},
    {"compound": "COc1ccccc1NC(=O)NCCCl", "values": [
      {"measurement": "cell number change", "value": 25.1, "unit": "%"},
      {"measurement": "AC50", "setting": "[1]", "value": "11.6 µM [rising, partial curve, poor fit]"}
    ]},
    {"compound": "Cc1sc2ncnc(Sc3nnnn3-c3ccccc3)c2c1C", "values": [
      {"measurement": "cell number change", "value": -7.47, "unit": "%"},
      {"measurement": "AC50", "setting": "[2]", "value": "4.61 µM [falling, single point]"},
      {"measurement": "AC50", "setting": "[1]", "value": "3.26 µM [falling, full curve]"}
    ]},
    {"compound": "COCCCNC(=S)N/N=C/c1ccc(N(C)C)cc1", "values": [
      {"measurement": "cell number change", "value": 39.6, "unit": "%"},
      {"measurement": "AC50", "setting": "[2]", "value": "6.51 µM [rising, partial curve]"}
    ]},
    {"compound": "Cc1ccc2cccc(OCCOCCOc3ccccc3Br)c2n1", "values": [
      {"measurement": "cell number change", "value": 17.6, "unit": "%"}
    ]},
    {"compound": "CC(C)(C)c1ccc(O)c(/C=N\\O)c1", "values": [
      {"measurement": "cell number change", "value": -31.2, "unit": "%"},
      {"measurement": "AC50", "setting": "[2]", "value": "0.206 µM [falling, partial curve, poor fit]"},
      {"measurement": "AC50", "setting": "[1]", "value": "29.1 µM [falling, single point]"}
    ]},
    {"compound": "CC(C)c1ccc(Nc2nc(Cl)nc(NCCO)n2)cc1", "values": [
      {"measurement": "cell number change", "value": -5.67, "unit": "%"}
    ]},
    {"compound": "CCOC(=O)N1CCC(N2CCN(S(=O)(=O)c3ccc(Cl)cc3)CC2)CC1", "values": [
      {"measurement": "cell number change", "value": -4.84, "unit": "%"},
      {"measurement": "AC50", "setting": "[2]", "value": "5.8 µM [rising, single point]"},
      {"measurement": "AC50", "setting": "[1]", "value": "29.1 µM [rising, single point]"}
    ]},
    {"compound": "NNC(=O)c1nc[nH]c1C(=O)Nc1ccccc1[N+](=O)[O-]", "values": [
      {"measurement": "AC50", "setting": "[2]", "value": "0.82 µM [rising, full curve]"}
    ]}
  ]
}
